At least one structure is not confirmed: it was looked up by name or label, or the drawing left a doubt.
Experiments:
[1] = tested on: EAEC strain O42 adherence to HEp-2 cells; test: HEp-2 cell attachment assay (microscopy after Wright-Giemsa staining); type: cell-based, human; details: HEp-2 cells incubated 24 h with antibiotic, washed, then EAEC 3 h
[2] = tested on: EAEC adherence with dialyzed conditioned medium of HEp-2 cells; test: Effect of dialyzed HEp-2 supernatants on EAEC adherence; type: cell-based, human; parameters: dose or concentration left out as unconfirmed; details: HEp-2 treated 24 h, supernatant dialyzed; chambers with or without HEp-2 cells, 3 h
Method: HEp-2 cells were cultured in T-175 flasks as described above. […] After 24 h, the medium was collected, loaded into regenerated cellulose dialysis tubing (cutoff, 6 to 8 kDa; Spectra/Por, Rancho Domiguez, Calif.), and dialyzed against 4 liters of PBS changed four times. Each dialysis step lasted at least 6 h and was carried out at 4° C. Dialyzed supernatants were either used immediately in adherence assays or stored at −20° C. until use.
The effect of supernatants on EAEC adherence was determined by mixing EAEC with the dialyzed media from the different antibiotic (or control) treatment groups and adding the bacteria to HEp-2 cells cultured in chambered slides or to chambered slides with no HEp-2 cells. Adherence was visualized microscopically as described above.

C[C@H]1c2cccc(O)c2C(=O)C2=C(O)[C@]3(O)C(=O)C(C(N)=O)=C(O)[C@@H](N(C)C)[C@@H]3[C@@H](O)[C@@H]21 [doxycycline]
EAEC O42 adherence to HEp-2 cells (microscopy) [1]: adhered in the traditional stacked-brick formation
EAEC adherence after mixing with dialyzed supernatants of antibiotic-treated HEp-2 cells [2]: adhered to chambers independently of the presence of HEp-2 cells
